Publication PMC8422350
No constants are given. Whether binding was seen depends on the method and setting. In cells and extracts the contact can be indirect. Some binding calls cover weakened binding; strength is not graded here.

Amino acid sequences for entries named in this document (tags omitted).
UniProt Q99JF8: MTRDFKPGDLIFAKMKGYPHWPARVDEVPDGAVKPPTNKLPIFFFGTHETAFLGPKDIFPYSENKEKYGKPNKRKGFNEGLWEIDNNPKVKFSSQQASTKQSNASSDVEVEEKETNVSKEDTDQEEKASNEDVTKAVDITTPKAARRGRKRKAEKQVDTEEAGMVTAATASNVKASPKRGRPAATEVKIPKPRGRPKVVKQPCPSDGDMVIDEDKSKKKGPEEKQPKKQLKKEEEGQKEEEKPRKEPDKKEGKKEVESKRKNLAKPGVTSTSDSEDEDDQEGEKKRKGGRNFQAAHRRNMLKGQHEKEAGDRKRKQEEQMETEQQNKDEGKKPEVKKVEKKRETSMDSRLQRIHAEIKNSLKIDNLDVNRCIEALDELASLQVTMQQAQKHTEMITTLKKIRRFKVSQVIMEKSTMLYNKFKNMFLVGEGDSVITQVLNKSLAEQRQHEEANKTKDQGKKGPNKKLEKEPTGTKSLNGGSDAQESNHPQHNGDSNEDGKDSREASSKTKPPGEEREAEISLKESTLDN
UniProt P11103: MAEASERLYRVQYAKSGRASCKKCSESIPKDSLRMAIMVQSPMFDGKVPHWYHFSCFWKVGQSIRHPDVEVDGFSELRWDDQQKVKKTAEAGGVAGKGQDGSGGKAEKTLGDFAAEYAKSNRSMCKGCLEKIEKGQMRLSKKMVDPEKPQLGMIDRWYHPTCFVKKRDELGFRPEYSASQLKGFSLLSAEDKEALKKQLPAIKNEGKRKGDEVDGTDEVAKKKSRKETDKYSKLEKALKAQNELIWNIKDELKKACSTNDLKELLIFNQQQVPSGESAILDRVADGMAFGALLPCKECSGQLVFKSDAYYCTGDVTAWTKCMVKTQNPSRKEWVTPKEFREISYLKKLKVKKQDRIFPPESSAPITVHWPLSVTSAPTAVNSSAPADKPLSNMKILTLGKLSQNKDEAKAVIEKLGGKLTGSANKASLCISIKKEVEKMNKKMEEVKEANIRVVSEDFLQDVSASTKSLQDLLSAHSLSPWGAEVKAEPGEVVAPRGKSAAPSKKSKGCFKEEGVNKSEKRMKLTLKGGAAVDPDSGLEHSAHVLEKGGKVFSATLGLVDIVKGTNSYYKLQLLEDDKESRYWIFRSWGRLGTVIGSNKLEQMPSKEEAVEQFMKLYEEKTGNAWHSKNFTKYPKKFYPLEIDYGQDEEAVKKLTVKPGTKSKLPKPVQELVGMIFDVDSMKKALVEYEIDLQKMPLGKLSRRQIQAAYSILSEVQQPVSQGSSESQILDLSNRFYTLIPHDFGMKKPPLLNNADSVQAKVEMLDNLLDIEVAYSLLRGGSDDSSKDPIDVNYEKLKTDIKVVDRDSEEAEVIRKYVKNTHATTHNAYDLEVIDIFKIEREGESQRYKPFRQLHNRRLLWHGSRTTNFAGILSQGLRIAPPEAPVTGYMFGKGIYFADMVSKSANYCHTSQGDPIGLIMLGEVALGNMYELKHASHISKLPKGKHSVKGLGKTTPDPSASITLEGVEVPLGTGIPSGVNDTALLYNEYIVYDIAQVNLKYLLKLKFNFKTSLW

Biological target: PC4 and SF2 interacting protein (PSIP1/LEDGF), longer isoform p75, endogenous (mouse (endogenous in MEFs and mESCs)) (UniProt Q99JF8)
Assay: co-IP; immunoprecipitation of endogenous PSIP/p75 with anti-PSIP/p75 (normal IgG as control) from nuclear lysate, western blotting; cell type not stated

binding: binds
Substance: PARP1 (from UniProt P11103 1-1013)
